Values from PubChem BioAssay AID504793 (Drosophila RNAi Screening Center, 2011)

- Aim: 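Knock-downs allowing continued mitosis even though DNA is damaged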 (primary screen)
- Cells: Drosophila S2R+ cells
- Reagent: long dsRNA against Drosophila genes, about 0.25 µg dsRNA per well
- Timing: 4 days of dsRNA, then 4 hours of drug before read-out
- Conditions: doxorubicin 0.5 µM for 4 hours to cause double-strand breaks, in cells also given a low, harmless dose of dsRNA against nbs to sensitise the assay
- Detection: 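Per-well count of mitotic cells stained for phospho-histone H3 after doxorubicin exposure, used as mitotic index; counts are raw and not normalised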
- Scale: mitotic cells: higher = more cells in mitosis, weaker G2 arrest
- Call rule: 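a call needs confirmation in secondary tests, with other dsRNAs and a check of mitotic timing without damage, not just a high primary count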
- Calls: active = confirmed in follow-up tests; inactive = not confirmed
The deposit covers about 23,000 reagents; below is a random part of those with a known target gene and a result. Of all reagents, 62 (0.27%) are marked active. 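Calls come from follow-up tests whose scores are not deposited, so confirmed genes may have low counts here; counts are not normalised per plate.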 Raw values vary from plate to plate and are shown uncorrected. Entries without a mark were called inactive. Names joined by + are all predicted targets of the reagent.

| target gene | DRSC id | mitotic cells, replicate 1 |
| --- | --- | --- |
| CG13460 | DRSC10007 | 3 |
| Pxn (Peroxidasin) | DRSC08685 | 16 |
| Pxn (Peroxidasin) | DRSC27895 | 4 |
| Sac1 (Sac1 phosphatase) | DRSC08622 | 4 |
| Sac1 (Sac1 phosphatase) | DRSC26886 | 7 |
| Ent2 (Equilibrative nucleoside transporter 2) | DRSC02124 | 9 |
| Ent2 (Equilibrative nucleoside transporter 2) | DRSC28879 | 6 |
| wnd (wallenda) | DRSC11046 | 4 |
| wnd (wallenda) | DRSC21373 | 23 |
| Lime (Linking immunity and metabolism) | DRSC06752 | 9 |
| CG30279 (retired record) | DRSC22417 | 4 |
| CG30279 (retired record) | DRSC27722 | 9 |
| Tdh (L-threonine dehydrogenase) | DRSC11788 | 4 |
| CG4467 | DRSC15585 | 11 |
| CG3916 | DRSC15520 | 2 |
| CG3916 | DRSC26907 | 8 |
| vlc (vulcan) | DRSC04922 | 5 |
| CG5160 | DRSC02821 | 2 |
| CG5160 | DRSC28456 | 14 |
| Nepl6 (Neprilysin-like 6) | DRSC03242 | 9 |
| Nepl6 (Neprilysin-like 6) | DRSC26260 | 5 |
| CG7182 | DRSC10780 | 2 |
| CG7182 | DRSC24776 | 6 |
| CG31664 | DRSC22084 | 5 |
| CG8192 | DRSC24995 | 7 |
| KaiR1D (Kainate-type ionotropic glutamate receptor subunit 1D) | DRSC15516 | 9 |
| slv (saliva) | DRSC07685 | 2 |
| CHES-1-like (Checkpoint suppressor 1-like) | DRSC18447 | 19 |
| shrb (shrub) | DRSC07061 | 8 |
| CG6432 | DRSC16039 | 9 |
| pigeon | DRSC03565 | 4 |
| l(3)72Dr (lethal (3) 72Dr) | DRSC10478 | 3 |
| Stacl + CG8179 (retired record) | DRSC23019 | 5 |
| Stacl + CG8179 (retired record) | DRSC25838 | 5 |
| Atg7 (Autophagy-related 7) | DRSC05741 | 6 |
| Atg7 (Autophagy-related 7) | DRSC06937 | 4 |
| Muc11A (Mucin 11A) | DRSC19498 | 6 |
| Muc11A (Mucin 11A) | DRSC29295 | 1 |
| CG2246 | DRSC15433 | 9 |
| ZnT86D (Zinc transporter 86D) | DRSC16091 | 6 |
| CG31698 | DRSC22226 | 3 |
| CG31698 | DRSC28563 | 5 |
| mTerf3 (mitochondrial transcription termination factor 3) | DRSC11759 | 1 |
| RpLP0-like (Ribosomal protein LP0-like) | DRSC06424 | 4 |
| RpLP0-like (Ribosomal protein LP0-like) | DRSC28206 | 5 |
